We go through 60 compounds from paper PMC12431657, “Discovery and mechanistic insights of dibenzoylmethane as a broad spectrum inhibitor of coronavirus” (PLOS Pathogens, 2025).

This experiment concerns HCoV-OC43. On the set-up: species or system RD; HTS, protection from HCoV-OC43 induced cell death, luminescent cell viability (CellCounting-Lite 2.0), inhibition rate. To be noted: 24 h post infection, 1 h compound pre-incubation, 10 µM, inhibitor.

Counter-ions that a name gives are not always drawn. Like-named read-outs stand apart in the source and are kept apart here. Out of some 3,300 compounds screened, about 60 (2%) showed an effect of 50% or more. The list shows a part of the results. Peptide text beside a SMILES is read from it.

For the compound `CC(C(=O)O)C(O)(CC(=O)O)C(=O)O` (stereo not drawn) [2-Methylcitric acid], the “OC43 Inhibition rate” value was -1.2%.
With `CC1(C)CC[C@]2(C(=O)O)CC[C@]3(C)C(=CC[C@@H]4[C@@]5(C)C[C@@H](O)[C@H](O)[C@@](C)(CO)[C@@H]5CC[C@]43C)[C@@H]2C1` [Arjunolic acid], the “OC43 Inhibition rate” value is listed as 6.3%.
As for `COc1cc(-c2c3c(c(O)c4cc5c(cc24)OCO5)COC3=O)cc(OC)c1OC` [Tetradehydropodophyllotoxin], the “OC43 Inhibition rate” value is given as 1%.
Same read-out and setting: the figure for `CC(C)[C@@H]1CC[C@@H](C)CC1=O` [Menthone] is 1.6%.
For `C[C@@H](O)C(=O)O` [D-(-)-Lactic acid (sodium)], the “OC43 Inhibition rate” value is -6.8%.
On the same count and under the same terms, the figure for `C=C[C@@](C)(/C=C/c1ccc(O)cc1)CCC=C(C)C` [Bakuchiol] is 0.1%.
With `CCC(CC)C(=O)O` [2-Ethylbutyric acid], the “OC43 Inhibition rate” value was found to be 5.7%.
For `C=C(C(=O)O)[C@H]1CC[C@H](C)[C@@H]2CC(=O)C(C)=C2C1` [Rupestonic acid], the “OC43 Inhibition rate” value is reported as 1.2%.
For `Cc1ccccc1C(=O)NCC(=O)O` [2-(2-Methylbenzamido)acetic acid], the “OC43 Inhibition rate” value was -0.8%.
On to `CC(=O)c1ccc2ccccc2c1` [2-Acetonaphthone], for which the “OC43 Inhibition rate” value is listed as -1.5%.
In the case of `COc1cc2c(cc1O)CC[n+]1cc3c(OC)c(OC)ccc3cc1-2` [Jatrorrhizine (chloride)], under “OC43 Inhibition rate, 24 h”, the “OC43 Inhibition rate” value is given as -1.6%.
Regarding `Cc1cc2nc3c(=O)[nH]c(=O)nc-3n(C[C@H](O)[C@H](O)[C@H](O)COP(=O)(O)OP(=O)(O)OC[C@H]3O[C@@H](n4cnc5c(N)ncnc54)[C@H](O)[C@@H]3O)c2cc1C` [Flavin adenine dinucleotide (disodium salt)], the “OC43 Inhibition rate” value is given as -0.8%.
Regarding `Cn1c(Cc2ccccc2)nc(=O)c2ccccc21` [Arborine], the “OC43 Inhibition rate” value is 6.9%.
Regarding `C[C@H]1O[C@@H](O[C@H]2[C@@H](O)C[C@H](O[C@H]3[C@@H](O)C[C@H](O[C@H]4CC[C@@]5(C)[C@H](CC[C@@H]6[C@@H]5CC[C@]5(C)[C@@H](C7=CC(=O)OC7)CC[C@]65O)C4)O[C@@H]3C)O[C@@H]2C)C[C@H](O)[C@@H]1O` [Digitoxin], the “OC43 Inhibition rate” value is listed as -1.1%.
For `C=C1CCC[C@]2(C)C[C@@H]3OC(=O)C(C)=C3C[C@@H]12` [Atractylenolide II], the “OC43 Inhibition rate” value was 36.4%.
As for `C=C(C)[C@@H]1CC[C@]2(C)CC[C@]3(C)[C@H](CC[C@@H]4[C@@]5(C)CC[C@H](O)C(C)(C)[C@@H]5CC[C@]43C)[C@@H]12` [Lupeol], the “OC43 Inhibition rate” value was found to be 0.1%.
With `O=c1ccc2cc3ccoc3c(O)c2o1` [Xanthotoxol], the “OC43 Inhibition rate” value was 0.3%.
Turning to `COC(=O)c1ccc(O)c(O)c1` [Methyl 3,4-dihydroxybenzoate], the “OC43 Inhibition rate” value is 2.3%.
Take `C[C@@H]1O[C@@H](O[C@H]2[C@H](O[C@H]3CC[C@@]4(C)[C@@H](CC[C@]5(C)[C@@H]4CC=C4[C@@H]6CC(C)(C)CC[C@]6(C(=O)O[C@@H]6O[C@H](CO[C@@H]7O[C@H](CO)[C@@H](O)[C@H](O)[C@H]7O)[C@@H](O)[C@H](O)[C@H]6O)CC[C@]45C)[C@]3(C)CO)OC[C@H](O)[C@@H]2O)[C@H](O)[C@H](O[C@@H]2O[C@H](CO)[C@@H](O[C@@H]3O[C@H](CO)[C@@H](O)[C@H](O)[C@H]3O)[C@H](O)[C@H]2O)[C@H]1O` [Macranthoidin B]: the “OC43 Inhibition rate” value is on record as -0.2%.
As for `COc1c(-c2ccccc2)oc2ccccc2c1=O` [3-Methoxyflavone], the “OC43 Inhibition rate” value is on record as -2.3%.
`CC(=O)CCc1ccccc1` [Benzylacetone]: the “OC43 Inhibition rate” value was determined as 2.4%.
On to `CC(=O)O[C@H]1C(=O)[C@@]2(C)[C@H]([C@H](OC(=O)c3ccccc3)[C@]3(O)C[C@H](O)C(C)=C1C3(C)C)[C@]1(OC(C)=O)CO[C@@H]1C[C@@H]2O` [Baccatin III], for which the “OC43 Inhibition rate” value is recorded as 0.7%.
As for `COc1cc2c(cc1OC)[C@@H]1Cc3ccc(OC)c(OC)c3CN1CC2` [Rotundine], the “OC43 Inhibition rate” value (OC43 Inhibition rate, 24 h) is reported as 2.9%.
Take `COc1ccc2[nH]c(=O)oc2c1` [Coixol]: the “OC43 Inhibition rate” value is given as 0%.
As for `C[C@@H]1O[C@@H](Oc2c(-c3ccc(O)cc3)oc3cc(O[C@@H]4O[C@@H](C)[C@H](O)[C@@H](O)[C@H]4O[C@@H]4O[C@H](CO)[C@@H](O)[C@H](O)[C@H]4O)cc(O)c3c2=O)[C@H](O)[C@H](O)[C@H]1O` [Grosvenorine], the “OC43 Inhibition rate” value is -0.3%.
Take `CCOC(=O)/C=C/c1ccc(OC)cc1` [(E)-Ethyl p-methoxycinnamate]: the “OC43 Inhibition rate” value is 0.7%.
Still for that read-out and setting: the figure for `O=C(O)CCCCCCCCCC(=O)O` [Undecanedioic acid] is -1.2%; for `CC1(C)CC[C@]2(C(=O)O[C@@H]3O[C@H](CO)[C@@H](O)[C@H](O)[C@H]3O)CC[C@]3(C)C(=CC[C@@H]4[C@@]5(C)CC[C@H](O)C(C)(C)[C@@H]5CC[C@]43C)[C@@H]2C1` [Oleanolic acid 28-O-β-D-glucopyranoside] it is -3.5%; for `O=c1[nH]cc(CO)c(=O)[nH]1` [5-Hydroxymethyluracil] it is 1%.
Consider `COc1ccc(-c2coc3cc(O[C@@H]4O[C@H](CO)[C@@H](O)[C@H](O)[C@H]4O)ccc3c2=O)cc1O` [Calycosin-7-O-β-D-glucoside], for which the “OC43 Inhibition rate” value was determined as 4.3%.
On to `C[C@@H](N)C(=O)O` [D-Alanine], for which the “OC43 Inhibition rate” value came to 3.8%.
Consider `COc1ccc2c(OC)c3ccoc3nc2c1` [Evolitrine], for which the “OC43 Inhibition rate” value is given as 14.1%.
The same measure, in the same setting: the figure for `c1cncc([C@@H]2CCCCN2)c1` [Anabasine] is -0.4%.
The same measure, in the same setting: with `COC(=O)[C@]12OC[C@]34[C@H]([C@@H](O)[C@@H]1O)[C@@]1(C)CC(=O)C(O)=C(C)[C@@H]1C[C@H]3OC(=O)[C@H](OC(=O)C=C(C)C)[C@@H]24` [Brusatol] the figure was 5.2%.
With `CC/C=C\C/C=C\C/C=C\CCCCCCCC(=O)OC` [Methyl linolenate], the “OC43 Inhibition rate” value stood at 3.9%.
As to `C=C1C[C@@]23CC[C@H]4[C@@](C)(CCC[C@@]4(C)C(=O)O[C@@H]4O[C@H](CO)[C@@H](O)[C@H](O)[C@H]4O)[C@@H]2CC[C@]1(O[C@@H]1O[C@H](CO)[C@@H](O)[C@H](O)[C@H]1O)C3` [Rubusoside], the “OC43 Inhibition rate” value is given as 1%.
Same read-out and setting: the figure for `CC(C)CCC[C@@H](C)[C@H]1CC[C@H]2[C@@H]3CC[C@H]4CC(=O)CC[C@]4(C)[C@H]3CC[C@]12C` [5α-Cholestan-3-one] is 0%; for `C1=Cc2cccc3cccc1c23` [Acenaphthylene] it is -0.4%; for `CCCSSC` [Methyl propyl disulfide] it is 1.6%.
As to `O=Cc1cccs1` [2-Thiophenecarboxaldehyde], the “OC43 Inhibition rate” value is 2.4%.
Still for that read-out and setting: the figure for `Cc1cc(O)cc(C)c1O` [2,6-Dimethylhydroquinone] is 10.2%.
On the same count and under the same terms, the figure for `O=C(O)CCCC[C@@H]1CCSS1` [Lipoic acid] is -2.2%.
Take `O=C(C[C@H]1NCCC[C@@H]1O)Cn1cnc2cc(Br)c(Cl)cc2c1=O` (racemic) [Halofuginone]: the “OC43 Inhibition rate” value (OC43 Inhibition rate, 24 h) is reported as 29.2%.
For `COc1cc2ccc(=O)oc2cc1O` [Scopoletin], the “OC43 Inhibition rate” value came out at 6%.
`C=C(C)[C@@H]1CC[C@]2(C)[C@H](CC=C3[C@@H]4[C@@H](C)[C@H](C)CC[C@]4(C)CC[C@]32C)[C@@]1(C)CCC(=O)O` [Roburic acid]: the “OC43 Inhibition rate” value is on record as 29.6%.
Consider `CC(C)[C@@H]1NC(=O)CNC(=O)[C@H](C)NC(=O)[C@H](Cc2c[nH]c3ccccc23)NC(=O)[C@H](C)NC1=O` [Segetalin B] (cyclo(AGVAW)), for which the “OC43 Inhibition rate” value is on record as -0.5%.
Consider `COc1cc(-c2oc3cc(O)cc(O)c3c(=O)c2O[C@@H]2O[C@H](CO[C@@H]3O[C@@H](C)[C@H](O)[C@@H](O)[C@H]3O)[C@@H](O)[C@H](O)[C@H]2O[C@@H]2O[C@@H](C)[C@H](O)[C@@H](O)[C@H]2O)ccc1O` [Typhaneoside], for which the “OC43 Inhibition rate” value is listed as -1.2%.
Still for that read-out and setting: with `COc1ccc(-c2oc3c(CC=C(C)C)c(O[C@@H]4O[C@H](CO)[C@@H](O)[C@H](O)[C@H]4O)cc(O)c3c(=O)c2O)cc1` [Icariside I] the figure was 2.1%; with `CC(C)=CCc1c(O)c(CC=C(C)C)c2oc3c(O)cccc3c(=O)c2c1O` [8-Deoxygartanin], 17.8%; with `C=CCc1ccc(O)c(-c2cc(CC=C)ccc2O)c1` [Magnolol], -0.6%.
Same read-out and setting: with `CC(C)c1cccc(=O)c(O)c1` [Hinokitiol] the figure was -1.3%; with `CC(C)=C[C@@H]1CO[C@]23C[C@]4(CO2)[C@H](CC[C@@H]2[C@@]5(C)CC[C@H](O[C@@H]6OC[C@H](O)[C@H](O[C@@H]7O[C@H](COS(=O)(=O)O)[C@@H](O)[C@H](O)[C@H]7O)[C@H]6O[C@@H]6O[C@@H](CO)[C@H](O)[C@H]6O)C(C)(C)[C@@H]5CC[C@]24C)[C@H]3[C@@]1(C)O` [Bacopaside I], 0.8%.
Take `COc1cc(C[C@@H](CO)[C@H](CO)Cc2ccc(O)c(OC)c2)ccc1O` [Secoisolariciresinol]: the “OC43 Inhibition rate” value (OC43 Inhibition rate, 24 h) worked out at 3.4%.
In the case of `O=P(O)(O)OC[C@H]1OC(O)(COP(=O)(O)O)[C@@H](O)[C@@H]1O` (stereo partly drawn) [Fosfructose (trisodium)], the “OC43 Inhibition rate” value was 6.3%.
Regarding `Nc1nc(=O)c2c([nH]1)NC[C@H](CNc1ccc(C(=O)N[C@@H](CCC(=O)O)C(=O)O)cc1)N2C=O` [Levoleucovorin (Calcium)], the “OC43 Inhibition rate” value worked out at 0%.
On the same count and under the same terms, with `O=C(O)[C@H]1CCCCN1` [D-Pipecolinic acid] the figure was -1.3%; with `O=c1ccn([C@H]2C[C@H](O)[C@@H](CO)O2)c(=O)[nH]1` [2'-Deoxyuridine], 1.5%; with `Nc1ccc(-c2ccccc2)cn1` [2-Amino-5-phenylpyridine], 0.8%.
As to `COc1ccc2c(c1OC)O[C@H]1c3ccc(O)cc3OC[C@@H]21` [Methylnissolin], the “OC43 Inhibition rate” value came out at 0.4%.
For `O=c1cc(-c2ccc(O)cc2)oc2cc(O[C@@H]3O[C@H](CO)[C@@H](O)[C@H](O)[C@H]3O)cc(O)c12` [Apigenin 7-glucoside], the “OC43 Inhibition rate” value was 6.5%.
